Laboratory results: EP3444273A1 (Medicinal Bioconvergence Research Center, dated 2019)
No constants are given. Whether binding was seen depends on the method and setting. Some results given as binding are weak or reduced against the parent protein; the word gives no strength. Ends that are not written are not given here.

Legend:
[1] = target: T1, AIMP2-DX2 protein (human) (UniProt Q13155); experiment: Western blot of H460 cell lysate
T1 sequence: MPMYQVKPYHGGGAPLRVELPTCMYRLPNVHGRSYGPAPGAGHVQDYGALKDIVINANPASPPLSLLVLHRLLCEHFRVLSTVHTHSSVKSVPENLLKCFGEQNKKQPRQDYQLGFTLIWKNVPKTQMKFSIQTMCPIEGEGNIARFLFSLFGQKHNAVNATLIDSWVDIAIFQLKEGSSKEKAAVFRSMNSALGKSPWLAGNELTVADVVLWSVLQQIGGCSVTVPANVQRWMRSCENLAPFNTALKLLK

[2] = target: T1, AIMP2-DX2 protein (human); experiment: Western blot of SW620 cell lysate, periplasmic extract as primary antibody (data not shown)

B1: H5 Fab (Fab, V domains shown)
VH: QEQLVESGGGLVTPGGTLTLTCTASGFTISSYHMTWVRQAPGKGLEWIGVISNSGGTSYANWAKGRFTISKTSTTVDLKITSPTTEDTATYFCVRGVPGINSNLWGQGTLVTISS
VL: AQVLTQTPSSVSAAVGGTVTINCQSSQSVYSGNWLAWYQQKPGQPPKLLIYSTSTLASGVPSRFKGSGSGTQFTLTVSDLECDDAATYYCAGDYDGYKNAFGGGTKVVVKR
notes: Expressed from pComb3XTT in E. coli and used as periplasmic extract; Detected with anti-HA tag or anti-human Fab secondary antibody, so a tag may be present; also called antibody (Fab) of clone H5; rabbit/human chimeric Fab
binding [1]: binds | binding [2]: binds
